Reference: publication PMC3734182
No constants are given. Whether binding was seen depends on the method and setting. In cells and extracts the contact can be indirect. Some results given as binding are weak or reduced against the parent protein; the word gives no strength.

Chains of the proteins cited; added tags and fusions are not shown. Residues count along the entry.
UniProt P15208, residues 28-1372: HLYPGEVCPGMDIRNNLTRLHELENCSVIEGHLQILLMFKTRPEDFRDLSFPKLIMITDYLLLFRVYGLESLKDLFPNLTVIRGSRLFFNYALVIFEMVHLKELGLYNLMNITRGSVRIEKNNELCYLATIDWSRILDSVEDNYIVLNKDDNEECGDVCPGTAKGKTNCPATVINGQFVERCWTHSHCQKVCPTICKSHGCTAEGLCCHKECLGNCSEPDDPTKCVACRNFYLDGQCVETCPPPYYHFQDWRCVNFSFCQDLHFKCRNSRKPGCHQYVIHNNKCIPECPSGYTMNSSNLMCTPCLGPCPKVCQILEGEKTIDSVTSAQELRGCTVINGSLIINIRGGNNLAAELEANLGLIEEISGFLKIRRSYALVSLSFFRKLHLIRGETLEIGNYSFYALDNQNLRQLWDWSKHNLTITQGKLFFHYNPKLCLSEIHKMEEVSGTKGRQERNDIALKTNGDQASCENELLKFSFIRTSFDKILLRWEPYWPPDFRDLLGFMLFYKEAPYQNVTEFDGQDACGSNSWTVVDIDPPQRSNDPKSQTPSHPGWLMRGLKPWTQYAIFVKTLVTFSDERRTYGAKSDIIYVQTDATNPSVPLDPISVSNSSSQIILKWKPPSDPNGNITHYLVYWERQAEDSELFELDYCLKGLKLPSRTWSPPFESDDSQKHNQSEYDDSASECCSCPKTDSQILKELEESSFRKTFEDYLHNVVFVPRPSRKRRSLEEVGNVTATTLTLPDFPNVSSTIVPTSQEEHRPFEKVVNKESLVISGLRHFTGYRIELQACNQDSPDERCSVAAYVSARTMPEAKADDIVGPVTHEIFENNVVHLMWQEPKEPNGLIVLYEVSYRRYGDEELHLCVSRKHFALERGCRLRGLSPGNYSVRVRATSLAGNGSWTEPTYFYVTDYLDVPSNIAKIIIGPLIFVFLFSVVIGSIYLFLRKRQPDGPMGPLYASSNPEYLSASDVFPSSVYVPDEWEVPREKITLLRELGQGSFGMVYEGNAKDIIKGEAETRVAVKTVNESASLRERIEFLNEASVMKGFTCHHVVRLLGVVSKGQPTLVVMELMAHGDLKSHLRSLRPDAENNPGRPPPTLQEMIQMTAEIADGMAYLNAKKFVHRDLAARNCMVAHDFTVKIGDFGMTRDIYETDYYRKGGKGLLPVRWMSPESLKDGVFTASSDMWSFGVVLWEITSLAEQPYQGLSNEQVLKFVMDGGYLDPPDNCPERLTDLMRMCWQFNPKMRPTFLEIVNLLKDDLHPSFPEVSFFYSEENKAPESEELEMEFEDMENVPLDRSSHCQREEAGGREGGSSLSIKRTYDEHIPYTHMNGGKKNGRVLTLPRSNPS

Molecular target: insulin receptor (mouse (endogenous in C57BL/6J liver)) (UniProt P15208)
Assay: proximity ligation; in situ PLA (Duolink) on paraffin-embedded 5 um liver sections of C57BL/6J mice, untreated or stimulated with insulin (10 U/kg body weight, 2 min); rabbit anti-insulin receptor plus goat anti-DEP-1 antibodies; resolution ~40-50 nm

- binding: binds
B1: density-enhanced phosphatase-1 (DEP-1) (enzyme, UniProt Q64455 29-1238)
chain: RQGQVLCAGAAPNPIFDIEAVVSPTSVLLTWKHNDSGASECRIENKMESNLTFPVKNQTSCNITGLSPGTSYTFSIISVTTNETLNKTITTEPWPVSDLHVTSVGVTQARLTWSNANGTASYRMLIEELTTHSSVNISGLKPGTNNSFAFPESNETQADFAVAEEVPDANGTKRIPVTNLSQLHKNSLVSVDPPSGQDPSLTEILLTDLKPDTQYNATIYSQAANGTEGQPRNKVFKTNSTQVSDVRAMNISASSMTLTWKSNYDGSRTSIVYKIHVAGGTHSVNQTVNKTEAIILGLSSSTLYNITVHPFLGQTEGTPGFLQVYTSPDQVSDFRVTNVSTRAIGLAWRSNDSKSFEIFIKQDGGEKHRNASTGNQSYMVEDLKPGTSYHFEIIPRGPDGTEGLSSTVNGSTDPSAVTDIRVVNISTTEMQLEWQNTDDASGYTYHLVLESKSGSIIRTNSSQKWITVGSLTPGTLYNVTIFPEVDQIQGISNSITQYTRPSSVSHIEVNTTTTTAAIRWKNEDAASASYAYSVLILKTGDGSNVTSNFTKDPSILIPELIPGVSYTVKILTQVGDGTTSLVPGWNLFCTEPEPVTSFHCEVVPKEPALVLKWACPFGMYTGFELGVRSDSWDNMTRLENCTSDDDTECRTEVAYLNFSTSYNISIATLSCGKMALPAQNICTTGITDPPTPDGSPNITSVSHNSVKVKFSGFEASHGPIKAYAVILTTGEAAQPSADVLKYTYEDFKRGASDTYVTYLIRIEEKGQSQGLSEVLNYEIDVGNQSTTLGYYNGRLEPLGSYRACVAGFTNITYNLQNDGLINGDESYVSFSPYSEAVFLPQDPGVICGAVFGCIFGALAITAVGGFIFWRKKRTDAKNNEVSFSQIKPKKSKLIRVENFEAYFKKQQADSNCGFAEEYEDLKLIGISLPKYTAEIAENRGKNRYNNVLPYDISRVKLSVQTHSTDDYINANYMPGYHSKKDFIATQGPLPNTLKDFWRMVWEKNVYAIVMLTKCVEQGRTKCEEYWPSKQAQDYGDITVAMTSEVVLPEWTIRDFVVKNMQNSESHPLRQFHFTSWPDHGVPDTTDLLINFRYLVRDYMKQIPPESPILVHCSAGVGRTGTFIAIDRLIYQIENENTVDVYGIVYDLRMHRPLMVQTEDQYVFLNQCVLDIIRAQKDSKVDLIYQNTTAMTIYENLEPVSMFGKTNGYIA
